Experimental data from PMC4632068.

Chains of the proteins cited; added tags and fusions are not shown. Residues count along the entry.
UniProt P07259: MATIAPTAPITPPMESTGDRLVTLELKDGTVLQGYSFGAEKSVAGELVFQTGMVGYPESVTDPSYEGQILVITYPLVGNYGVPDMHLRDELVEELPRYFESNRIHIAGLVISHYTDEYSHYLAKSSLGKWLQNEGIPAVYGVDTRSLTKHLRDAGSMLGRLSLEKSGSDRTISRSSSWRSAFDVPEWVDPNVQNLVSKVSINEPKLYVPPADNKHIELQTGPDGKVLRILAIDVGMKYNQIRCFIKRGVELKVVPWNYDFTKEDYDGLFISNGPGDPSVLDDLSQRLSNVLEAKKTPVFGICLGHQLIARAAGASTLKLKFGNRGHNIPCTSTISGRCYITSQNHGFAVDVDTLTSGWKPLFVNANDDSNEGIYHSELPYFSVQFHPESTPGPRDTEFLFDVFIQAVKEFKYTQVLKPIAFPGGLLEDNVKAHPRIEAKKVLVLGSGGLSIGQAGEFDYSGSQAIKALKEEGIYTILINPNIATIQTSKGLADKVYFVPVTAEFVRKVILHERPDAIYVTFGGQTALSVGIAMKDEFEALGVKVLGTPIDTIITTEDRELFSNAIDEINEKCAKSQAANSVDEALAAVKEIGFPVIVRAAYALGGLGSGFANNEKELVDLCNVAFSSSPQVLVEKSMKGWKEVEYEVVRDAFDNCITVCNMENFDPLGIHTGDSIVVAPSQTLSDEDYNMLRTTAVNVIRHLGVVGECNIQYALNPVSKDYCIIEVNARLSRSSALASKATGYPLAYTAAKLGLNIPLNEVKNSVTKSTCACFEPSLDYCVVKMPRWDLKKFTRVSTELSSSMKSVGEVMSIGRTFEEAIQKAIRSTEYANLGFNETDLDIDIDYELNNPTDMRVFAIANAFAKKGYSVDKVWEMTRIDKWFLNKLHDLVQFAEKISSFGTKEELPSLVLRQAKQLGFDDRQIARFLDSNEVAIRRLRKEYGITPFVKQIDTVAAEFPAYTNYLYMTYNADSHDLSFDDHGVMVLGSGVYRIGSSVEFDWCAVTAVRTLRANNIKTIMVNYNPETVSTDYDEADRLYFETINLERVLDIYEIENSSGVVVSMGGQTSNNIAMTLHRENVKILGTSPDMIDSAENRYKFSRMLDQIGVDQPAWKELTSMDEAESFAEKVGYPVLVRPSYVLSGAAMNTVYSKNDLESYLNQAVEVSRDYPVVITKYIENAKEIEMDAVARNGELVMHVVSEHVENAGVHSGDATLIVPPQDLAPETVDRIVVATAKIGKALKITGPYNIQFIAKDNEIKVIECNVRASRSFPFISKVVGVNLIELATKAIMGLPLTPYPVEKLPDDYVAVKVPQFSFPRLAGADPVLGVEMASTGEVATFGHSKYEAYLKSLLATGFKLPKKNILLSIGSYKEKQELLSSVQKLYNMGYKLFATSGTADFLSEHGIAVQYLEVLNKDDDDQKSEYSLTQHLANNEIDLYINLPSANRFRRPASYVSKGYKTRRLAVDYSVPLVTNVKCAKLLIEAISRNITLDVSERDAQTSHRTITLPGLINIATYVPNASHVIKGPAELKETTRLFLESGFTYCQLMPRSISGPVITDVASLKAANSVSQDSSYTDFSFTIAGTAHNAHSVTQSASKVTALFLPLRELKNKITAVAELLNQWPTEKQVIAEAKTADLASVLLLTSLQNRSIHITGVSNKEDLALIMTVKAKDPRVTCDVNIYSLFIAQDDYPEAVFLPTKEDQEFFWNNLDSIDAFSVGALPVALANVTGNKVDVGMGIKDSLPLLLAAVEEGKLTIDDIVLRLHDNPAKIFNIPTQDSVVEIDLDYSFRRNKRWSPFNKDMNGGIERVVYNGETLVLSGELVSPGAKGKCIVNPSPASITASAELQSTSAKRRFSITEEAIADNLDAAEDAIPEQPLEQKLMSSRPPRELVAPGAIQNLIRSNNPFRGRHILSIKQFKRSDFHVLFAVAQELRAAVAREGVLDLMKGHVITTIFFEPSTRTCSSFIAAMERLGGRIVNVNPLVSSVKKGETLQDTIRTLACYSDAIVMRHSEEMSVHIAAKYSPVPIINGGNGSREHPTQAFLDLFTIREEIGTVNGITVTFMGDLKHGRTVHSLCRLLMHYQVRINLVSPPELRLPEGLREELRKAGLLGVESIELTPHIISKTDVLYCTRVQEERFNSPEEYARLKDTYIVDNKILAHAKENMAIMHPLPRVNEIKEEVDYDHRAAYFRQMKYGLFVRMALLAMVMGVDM
UniProt P31539: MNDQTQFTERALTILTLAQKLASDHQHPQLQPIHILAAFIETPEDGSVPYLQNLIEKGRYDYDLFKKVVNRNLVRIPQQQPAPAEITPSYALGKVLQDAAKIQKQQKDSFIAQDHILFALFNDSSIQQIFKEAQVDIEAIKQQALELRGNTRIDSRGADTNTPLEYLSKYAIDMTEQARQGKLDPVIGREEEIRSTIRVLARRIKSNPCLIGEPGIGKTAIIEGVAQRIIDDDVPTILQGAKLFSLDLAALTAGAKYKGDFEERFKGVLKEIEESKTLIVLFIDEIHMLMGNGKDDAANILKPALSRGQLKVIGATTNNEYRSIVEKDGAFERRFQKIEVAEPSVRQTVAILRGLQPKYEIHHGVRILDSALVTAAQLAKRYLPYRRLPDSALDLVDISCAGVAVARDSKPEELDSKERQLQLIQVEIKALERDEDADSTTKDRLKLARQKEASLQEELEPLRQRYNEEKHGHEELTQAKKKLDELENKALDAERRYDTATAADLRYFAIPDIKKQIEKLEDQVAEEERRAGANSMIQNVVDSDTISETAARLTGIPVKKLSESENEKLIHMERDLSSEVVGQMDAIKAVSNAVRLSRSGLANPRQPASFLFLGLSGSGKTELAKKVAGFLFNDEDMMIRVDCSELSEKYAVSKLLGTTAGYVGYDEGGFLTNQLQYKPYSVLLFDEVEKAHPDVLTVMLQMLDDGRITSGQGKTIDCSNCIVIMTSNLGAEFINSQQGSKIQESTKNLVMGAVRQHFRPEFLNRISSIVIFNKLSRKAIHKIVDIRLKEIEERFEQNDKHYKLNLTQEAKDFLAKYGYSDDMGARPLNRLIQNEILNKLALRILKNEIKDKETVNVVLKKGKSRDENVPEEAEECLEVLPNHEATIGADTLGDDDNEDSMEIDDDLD
UniProt P15180: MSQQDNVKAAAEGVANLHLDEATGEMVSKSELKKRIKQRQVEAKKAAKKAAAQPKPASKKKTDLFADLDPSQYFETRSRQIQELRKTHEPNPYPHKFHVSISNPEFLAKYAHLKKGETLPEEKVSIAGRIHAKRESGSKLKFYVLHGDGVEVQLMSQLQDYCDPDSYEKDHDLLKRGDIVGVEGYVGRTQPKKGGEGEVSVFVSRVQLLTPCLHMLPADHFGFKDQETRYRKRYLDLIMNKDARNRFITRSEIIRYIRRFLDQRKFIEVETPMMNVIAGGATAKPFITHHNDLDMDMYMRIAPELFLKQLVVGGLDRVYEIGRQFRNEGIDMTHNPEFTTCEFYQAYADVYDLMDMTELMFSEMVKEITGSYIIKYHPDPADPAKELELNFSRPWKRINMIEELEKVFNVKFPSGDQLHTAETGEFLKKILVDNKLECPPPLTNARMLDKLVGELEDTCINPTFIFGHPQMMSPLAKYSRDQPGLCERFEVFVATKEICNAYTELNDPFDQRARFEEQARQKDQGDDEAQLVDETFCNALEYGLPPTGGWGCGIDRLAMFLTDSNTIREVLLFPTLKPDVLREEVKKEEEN
UniProt P07251, residues 36-545: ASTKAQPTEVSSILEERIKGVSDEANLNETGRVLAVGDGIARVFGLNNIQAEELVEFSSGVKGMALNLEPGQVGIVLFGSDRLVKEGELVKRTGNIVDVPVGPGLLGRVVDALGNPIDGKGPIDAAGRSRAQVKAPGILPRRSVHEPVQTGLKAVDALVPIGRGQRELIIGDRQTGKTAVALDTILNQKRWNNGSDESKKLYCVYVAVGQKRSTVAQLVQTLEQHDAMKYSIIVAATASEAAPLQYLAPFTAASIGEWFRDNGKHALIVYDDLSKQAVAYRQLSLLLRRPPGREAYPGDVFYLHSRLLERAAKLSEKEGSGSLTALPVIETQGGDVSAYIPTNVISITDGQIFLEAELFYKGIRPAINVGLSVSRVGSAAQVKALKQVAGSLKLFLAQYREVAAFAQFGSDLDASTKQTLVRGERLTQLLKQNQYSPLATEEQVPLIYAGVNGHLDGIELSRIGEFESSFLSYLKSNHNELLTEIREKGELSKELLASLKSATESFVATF
UniProt P06103: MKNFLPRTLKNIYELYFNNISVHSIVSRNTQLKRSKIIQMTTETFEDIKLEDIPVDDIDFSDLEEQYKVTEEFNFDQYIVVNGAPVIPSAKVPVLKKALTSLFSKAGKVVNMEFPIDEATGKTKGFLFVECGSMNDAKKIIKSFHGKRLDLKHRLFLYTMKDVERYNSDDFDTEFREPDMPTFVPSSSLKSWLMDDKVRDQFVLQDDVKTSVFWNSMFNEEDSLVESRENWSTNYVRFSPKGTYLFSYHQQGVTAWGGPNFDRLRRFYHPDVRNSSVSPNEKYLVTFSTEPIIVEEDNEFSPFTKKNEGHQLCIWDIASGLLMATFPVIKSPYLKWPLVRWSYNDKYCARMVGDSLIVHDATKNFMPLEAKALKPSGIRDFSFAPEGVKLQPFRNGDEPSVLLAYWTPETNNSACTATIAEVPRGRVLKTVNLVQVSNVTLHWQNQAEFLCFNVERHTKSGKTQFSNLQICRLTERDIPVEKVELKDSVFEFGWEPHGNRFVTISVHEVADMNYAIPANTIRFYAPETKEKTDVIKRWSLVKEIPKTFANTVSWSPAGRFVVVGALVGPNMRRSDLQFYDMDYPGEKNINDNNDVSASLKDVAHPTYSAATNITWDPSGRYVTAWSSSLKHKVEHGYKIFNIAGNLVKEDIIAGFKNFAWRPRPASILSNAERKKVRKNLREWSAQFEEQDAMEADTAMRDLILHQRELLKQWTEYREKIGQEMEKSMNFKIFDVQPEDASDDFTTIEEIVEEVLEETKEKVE
UniProt P20447: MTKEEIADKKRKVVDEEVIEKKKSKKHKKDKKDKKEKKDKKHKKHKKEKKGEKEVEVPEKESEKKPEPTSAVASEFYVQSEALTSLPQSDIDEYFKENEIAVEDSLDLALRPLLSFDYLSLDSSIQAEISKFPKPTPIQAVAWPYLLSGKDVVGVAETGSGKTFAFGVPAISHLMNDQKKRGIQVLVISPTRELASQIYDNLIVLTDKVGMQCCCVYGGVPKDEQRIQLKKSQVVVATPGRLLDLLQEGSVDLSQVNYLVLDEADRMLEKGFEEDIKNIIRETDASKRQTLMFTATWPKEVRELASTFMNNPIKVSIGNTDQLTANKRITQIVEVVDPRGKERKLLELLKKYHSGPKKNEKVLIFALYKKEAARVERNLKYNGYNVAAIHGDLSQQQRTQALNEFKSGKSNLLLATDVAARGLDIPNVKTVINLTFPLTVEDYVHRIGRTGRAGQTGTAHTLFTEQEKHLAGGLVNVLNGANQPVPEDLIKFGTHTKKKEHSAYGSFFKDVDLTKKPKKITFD
UniProt P38249: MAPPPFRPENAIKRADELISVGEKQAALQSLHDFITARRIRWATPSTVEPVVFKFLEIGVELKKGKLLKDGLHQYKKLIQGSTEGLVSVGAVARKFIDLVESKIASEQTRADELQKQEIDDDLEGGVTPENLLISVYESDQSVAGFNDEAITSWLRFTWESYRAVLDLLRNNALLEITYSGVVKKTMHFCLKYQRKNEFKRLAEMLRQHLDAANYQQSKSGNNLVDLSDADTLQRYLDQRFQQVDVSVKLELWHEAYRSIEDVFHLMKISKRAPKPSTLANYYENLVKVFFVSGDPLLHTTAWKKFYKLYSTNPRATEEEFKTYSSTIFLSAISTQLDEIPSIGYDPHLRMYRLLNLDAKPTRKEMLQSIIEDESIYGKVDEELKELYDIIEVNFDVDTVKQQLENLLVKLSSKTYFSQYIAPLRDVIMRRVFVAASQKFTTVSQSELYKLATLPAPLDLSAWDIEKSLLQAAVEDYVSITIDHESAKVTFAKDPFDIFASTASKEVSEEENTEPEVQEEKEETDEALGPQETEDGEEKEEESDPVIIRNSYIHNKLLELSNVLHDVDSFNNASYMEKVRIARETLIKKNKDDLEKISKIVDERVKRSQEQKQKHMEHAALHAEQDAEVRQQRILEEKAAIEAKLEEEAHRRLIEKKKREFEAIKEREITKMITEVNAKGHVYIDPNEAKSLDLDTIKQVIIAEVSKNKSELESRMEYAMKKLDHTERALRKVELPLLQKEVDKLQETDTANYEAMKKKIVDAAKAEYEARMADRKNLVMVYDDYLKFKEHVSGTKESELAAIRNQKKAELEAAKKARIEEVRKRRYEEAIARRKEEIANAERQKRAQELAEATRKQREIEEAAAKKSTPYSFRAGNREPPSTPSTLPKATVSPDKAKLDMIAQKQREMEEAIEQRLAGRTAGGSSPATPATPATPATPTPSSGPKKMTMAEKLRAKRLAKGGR

T1: Dhh1−GFP (S. cerevisiae (endogenous in BY4741-derived yeast)) (UniProt P39517)
T1 sequence: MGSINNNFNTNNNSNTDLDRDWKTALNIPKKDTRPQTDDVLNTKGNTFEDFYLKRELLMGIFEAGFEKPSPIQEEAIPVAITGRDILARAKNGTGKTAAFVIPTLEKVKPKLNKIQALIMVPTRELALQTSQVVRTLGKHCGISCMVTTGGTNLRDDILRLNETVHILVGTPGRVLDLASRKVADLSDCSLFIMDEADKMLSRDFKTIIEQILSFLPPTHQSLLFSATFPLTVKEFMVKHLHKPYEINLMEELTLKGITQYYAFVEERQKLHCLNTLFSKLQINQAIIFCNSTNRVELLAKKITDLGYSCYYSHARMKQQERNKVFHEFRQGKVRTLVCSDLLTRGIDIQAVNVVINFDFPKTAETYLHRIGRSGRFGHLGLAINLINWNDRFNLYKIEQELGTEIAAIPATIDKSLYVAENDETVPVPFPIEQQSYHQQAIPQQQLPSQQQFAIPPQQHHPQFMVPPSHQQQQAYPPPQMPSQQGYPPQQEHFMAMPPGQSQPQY

B1: Edc1 (protein, UniProt P53080 1-175)
chain: MSTDTMYFNSSRLLPSAGRNKTNNLIKQKTRNNRARGNAAKNANNNNYITDIPPPQTLPNGQKPNFGHSSNKKPSFNQKKHSPPSSPSSTTTLGKKNRQNNKETPRQNNKDDTRLLSQNLKNLLLNQKQSPHGSQGIIPMGCNGSAKKLSHSYAGSTFATNGPREAKNLPKPSFL
B2: Lsm3 (protein, UniProt P57743 1-89)
chain: METPLDLLKLNLDERVYIKLRGARTLVGTLQAFDSHCNIVLSDAVETIYQLNNEELSESERRCEMVFIRGDTVTLISTPSEDDDGAVEI
B3: Edc3 (protein, UniProt P39998 1-551)
chain: MSQFVGFGVQVELKDGKLIQGKIAKATSKGLTLNDVQFGDGGKSQAFKVRASRLKDLKVLTVASQSGKRKQQRQQQQQNDYNQNRGEHIDWQDDDVSKIKQQEDFDFQRNLGMFNKKDVFAQLKQNDDILPENRLQGHNRKQTQLQQNNYQNDELVIPDAKKDSWNKISSRNEQSTHQSQPQQDAQDDLVLEDDEHEYDVDDIDDPKYLPITQSLNITHLIHSATNSPSINDKTKGTVINDKDQVLAKLGQMIISQSRSNSTSLPAANKQTTIRSKNTKQNIPMATPVQLLEMESITSEFFSINSAGLLENFAVNASFFLKQKLGGRARLRLQNSNPEPLVVILASDSNRSGAKALALGRHLCQTGHIRVITLFTCSQNELQDSMVKKQTDIYKKCGGKIVNSVSSLESAMETLNSPVEIVIDAMQGYDCTLSDLAGTSEVIESRIKSMISWCNKQRGSTKVWSLDIPNGFDAGSGMPDIFFSDRIEATGIICSGWPLIAINNLIANLPSLEDAVLIDIGIPQGAYSQRTSLRKFQNCDLFVTDGSLLLDL
B4: Lsm6 (protein, UniProt Q06406 1-86)
chain: MSGKASTEGSVTTEFLSDIIGKTVNVKLASGLLYSGRLESIDGFMNVALSSATEHYESNNNKLLNKFNSDVFLRGTQVMYISEQKI
B5: Tif2 (protein, UniProt P10081 1-395)
chain: MSEGITDIEESQIQTNYDKVVYKFDDMELDENLLRGVFGYGFEEPSAIQQRAIMPIIEGHDVLAQAQSGTGKTGTFSIAALQRIDTSVKAPQALMLAPTRELALQIQKVVMALAFHMDIKVHACIGGTSFVEDAEGLRDAQIVVGTPGRVFDNIQRRRFRTDKIKMFILDEADEMLSSGFKEQIYQIFTLLPPTTQVVLLSATMPNDVLEVTTKFMRNPVRILVKKDELTLEGIKQFYVNVEEEEYKYECLTDLYDSISVTQAVIFCNTRRKVEELTTKLRNDKFTVSAIYSDLPQQERDTIMKEFRSGSSRILISTDLLARGIDVQQVSLVINYDLPANKENYIHRIGRGGRFGRKGVAINFVTNEDVGAMRELEKFYSTQIEELPSDIATLLN
B6: Lsm4 (protein, UniProt P40070 1-187)
chain: MLPLYLLTNAKGQQMQIELKNGEIIQGILTNVDNWMNLTLSNVTEYSEESAINSEDNAESSKAVKLNEIYIRGTFIKFIKLQDNIIDKVKQQINSNNNSNSNGPGHKRYYNNRDSNNNRGNYNRRNNNNGNSNRRPYSQNRQYNNSNSSNINNSINSINSNNQNMNNGLGGSVQHHFNSSSPQKVEF
B7: Fun12 (protein, UniProt P39730 1-1002)
chain: MAKKSKKNQQNYWDEEFEEDAAQNEEISATPTPNPESSAGADDTSREASASAEGAEAIEGDFMSTLKQSKKKQEKKVIEEKKDGKPILKSKKEKEKEKKEKEKQKKKEQAARKKAQQQAQKEKNKELNKQNVEKAAAEKAAAEKSQKSKGESDKPSASAKKPAKKVPAGLAALRRQLELKKQLEEQEKLEREEEERLEKEEEERLANEEKMKEEAKAAKKEKEKAKREKRKAEGKLLTRKQKEEKKLLERRRAALLSSGNVKVAGLAKKDGEENKPKKVVYSKKKKRTTQENASEAIKSDSKKDSEVVPDDELKESEDVLIDDWENLALGDDDEEGTNEETQESTASHENEDQNQGEEEEEGEEEEEEEEERAHVHEVAKSTPAATPAATPTPSSASPNKKDLRSPICCILGHVDTGKTKLLDKIRQTNVQGGEAGGITQQIGATYFPIDAIKAKTKVMAEYEKQTFDVPGLLVIDTPGHESFSNLRSRGSSLCNIAILVIDIMHGLEQQTIESIKLLRDRKAPFVVALNKIDRLYDWKAIPNNSFRDSFAKQSRAVQEEFQSRYSKIQLELAEQGLNSELYFQNKNMSKYVSIVPTSAVTGEGVPDLLWLLLELTQKRMSKQLMYLSHVEATILEVKVVEGFGTTIDVILSNGYLREGDRIVLCGMNGPIVTNIRALLTPQPLRELRLKSEYVHHKEVKAALGVKIAANDLEKAVSGSRLLVVGPEDDEDELMDDVMDDLTGLLDSVDTTGKGVVVQASTLGSLEALLDFLKDMKIPVMSIGLGPVYKRDVMKASTMLEKAPEYAVMLCFDVKVDKEAEQYAEQEGIKIFNADVIYHLFDSFTAYQEKLLEERRKDFLDYAIFPCVLQTLQIINKRGPMIIGVDVLEGTLRVGTPICAVKTDPTTKERQTLILGKVISLEINHQPVQEVKKGQTAAGVAVRLEDPSGQQPIWGRHVDENDTLYSLVSRRSIDTLKDKAFRDQVARSDWLLLKKLKVVFGIE
B8: Lsm7 (protein, UniProt P53905 1-115)
chain: MHQQHSKSENKPQQQRKKFEGPKREAILDLAKYKDSKIRVKLMGGKLVIGVLKGYDQLMNLVLDDTVEYMSNPDDENNTELISKNARKLGLTVIRGTILVSLSSAEGSDVLYMQK
B9: Lsm2 (protein, UniProt P38203 1-95)
chain: MLFFSFFKTLVDQEVVVELKNDIEIKGTLQSVDQFLNLKLDNISCTDEKKYPHLGSVRNIFIRGSTVRYVYLNKNMVDTNLLQDATRREVMTERK
B10: Lsm1 (protein, UniProt P47017 1-172)
chain: MSANSKDRNQSNQDAKRQQQNFPKKISEGEADLYLDQYNFTTTAAIVSSVDRKIFVLLRDGRMLFGVLRTFDQYANLILQDCVERIYFSEENKYAEEDRGIFMIRGENVVMLGEVDIDKEDQPLEAMERIPFKEAWLTKQKNDEKRFKEETHKGKKMARHGIVYDFHKSDMY
B11: Lsm5 (protein, UniProt P40089 1-93)
chain: MSLPEILPLEVIDKTINQKVLIVLQSNREFEGTLVGFDDFVNVILEDAVEWLIDPEDESRNEKVMQHHGRMLLSGNNIAILVPGGKKTPTEAL
B12: Pat1 (protein, UniProt P25644 1-796)
chain: MSFFGLENSGNARDGPLDFEESYKGYGEHELEENDYLNDETFGDNVQVGTDFDFGNPHSSGSSGNAIGGNGVGATARSYVAATAEGISGPRTDGTAAAGPLDLKPMESLWSTAPPPAMAPSPQSTMAPAPAPQQMAPLQPILSMQDLERQQRQMQQQFMNFHAMGHPQGLPQGPPQQQFPMQPASGQPGPSQFAPPPPPPGVNVNMNQMPMGPVQVPVQASPSPIGMSNTPSPGPVVGATKMPLQSGRRSKRDLSPEEQRRLQIRHAKVEKILKYSGLMTPRDKDFITRYQLSQIVTEDPYNEDFYFQVYKIIQRGGITSESNKGLIARAYLEHSGHRLGGRYKRTDIALQRMQSQVEKAVTVAKERPSKLKDQQAAAGNSSQDNKQANTVLGKISSTLNSKNPRRQLQIPRQQPSDPDALKDVTDSLTNVDLASSGSSSTGSSAAAVASKQRRRSSYAFNNGNGATNLNKSGGKKFILELIETVYEEILDLEANLRNGQQTDSTAMWEALHIDDSSYDVNPFISMLSFDKGIKIMPRIFNFLDKQQKLKILQKIFNELSHLQIIILSSYKTTPKPTLTQLKKVDLFQMIILKIIVSFLSNNSNFIEIMGLLLQLIRNNNVSFLTTSKIGLNLITILISRAALIKQDSSRSNILSSPEISTWNEIYDKLFTSLESKIQLIFPPREYNDHIMRLQNDKFMDEAYIWQFLASLALSGKLNHQRIIIDEVRDEIFATINEAETLQKKEKELSVLPQRSQELDTELKSIIYNKEKLYQDLNLFLNVMGLVYRDGEISELK

target: T1, Dhh1−GFP (S. cerevisiae (endogenous in BY4741-derived yeast)); assay: affinity purification with mass spectrometry; Dhh1−GFP captured by anti-GFP IgG cross-linked to Protein-G Dynabeads from cleared lysate of cryo-ground yeast; RB buffer (30 mM K-Hepes pH 7.4, 150 mM KCl, 2 mM MgCl2, 0.2% NP-40, 0.1% Tween-20, 1 mM DTT, RNase inhibitor), 30 min at 4°; five purifications (two +glucose YPD, three 30 min −glucose YEP); hits filtered by SAINT against CRAPome controls

binding, binds:
Ipp1 (from UniProt P00817 1-287)
Ura2 (from UniProt P07259 1-2214)
Hsp104 (from UniProt P31539 1-908)
Krs1 (from UniProt P15180 1-591)
Atp1 (from UniProt P07251 36-545)
Prt1 (from UniProt P06103 1-763)
Vma2 (from UniProt P16140 1-517)
Cdc48 (from UniProt P25694 1-835)
Dbp3 (from UniProt P20447 1-523)
Pbp1 (from UniProt P53297 1-722)
Xrn1 (from UniProt P22147 1-1528)
Rpl16A (from UniProt P26784 1-199)
Pab1 (from UniProt P04147 1-577)
Rpg1 (from UniProt P38249 1-964)
Sup35 (from UniProt P05453 1-685)
B1
B2
B3
B4
B5
B6
B7
B8
B9
B10
B11
B12

Results are given in words; binding and its absence hold for the method and conditions named. Binding seen in cells or lysates may run through a third protein. A yes stands for co-enrichment or nearness to the bait. Other partners may have been found. Tags and fused reporters may be left off the sequences shown.
